# From the supplement of paper PMC11637464
# Counter-ions that a name gives are not always drawn. This is one part of the list. Most values come without repeats; read them as rough.
# Test system: primary mouse Muller glia with Ascl1 overexpression
# Test: total cells recovered per well; higher = more cells recovered
# Experimental: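 Primary P11 mouse Muller glia carrying dox-inducible Ascl1 were treated with Tocriscreen Stem Cell Library compounds at 0.1, 1 or 10 uM together with doxycycline for 5 days, then profiled by sci-Plex hashing and sci-RNA-seq2. Cells were annotated by marker genes and cell-type counts per well were size-factor adjusted. Read-outs are the log2 fold change of Neuronal (NeuPre + bipolar) and ProL cell counts versus the Ascl1-only control wells of the same collection day, plus the raw number of recovered cells per well. There is one well per dose, and wells with fewer than 20 cells were discarded.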
compound,measurement,setting,value
COc1cc2c(cc1-c1c(C)noc1C)ncc1[nH]c(=O)n([C@H](C)c3ccccn3)c12 [I-BET 151 dihydrochloride] (collection day: 2),total cells recovered per well,0.1 µM,124
same,total cells recovered per well,1 µM,65
same,total cells recovered per well,10 µM,48
Nc1ncn([C@@H]2O[C@H](CO)[C@@H](O)[C@H]2O)c(=O)n1 [5-Azacytidine] (collection day: 2),total cells recovered per well,0.1 µM,51
same,total cells recovered per well,1 µM,65
same,total cells recovered per well,10 µM,101
Cc1ccc(/C=N/NC(=O)c2ccccc2Oc2ccccc2)o1 (collection day: 2),total cells recovered per well,0.1 µM,101
same,total cells recovered per well,1 µM,85
same,total cells recovered per well,10 µM,74
CCN(CC)S(=O)(=O)Nc1cccc(-c2ccc3c(NC(=O)C4CC4)n[nH]c3c2)c1 (collection day: 2),total cells recovered per well,0.1 µM,125
same,total cells recovered per well,1 µM,111
same,total cells recovered per well,10 µM,140
O=c1[nH]c(=O)n([C@H]2C[C@H](O)[C@@H](CO)O2)cc1Br (collection day: 2),total cells recovered per well,0.1 µM,107
same,total cells recovered per well,1 µM,111
same,total cells recovered per well,10 µM,126
O=C1Cc2c([nH]c3ccc(Br)cc23)-c2ccccc2N1 [Kenpaullone] (collection day: 1),total cells recovered per well,0.1 µM,45
same,total cells recovered per well,1 µM,57
Cc1ccc(-c2cn3c4c(sc3n2)CCCC4)cc1 [Cyclic Pifithrin-alpha hydrobromide] (collection day: 2),total cells recovered per well,0.1 µM,76
CCn1c(=O)[nH]c2ccccc21 (collection day: 1),total cells recovered per well,0.1 µM,62
same,total cells recovered per well,1 µM,62
same,total cells recovered per well,10 µM,53
O=C(O)c1ccc2cc(-c3ccc(O)c(C45CC6CC(CC(C6)C4)C5)c3)ccc2c1 (collection day: 1),total cells recovered per well,0.1 µM,43
O=C(O)c1ccccc1C(=O)Nc1ccc(-c2ccccc2)cc1 [Kartogenin] (collection day: 2),total cells recovered per well,0.1 µM,91
same,total cells recovered per well,1 µM,127
same,total cells recovered per well,10 µM,132
Cc1c(C)c2c(c(C)c1O)CCC(C)(COc1ccc(CC3SC(=O)NC3=O)cc1)O2 (stereo unspecified) [Troglitazone] (collection day: 1),total cells recovered per well,0.1 µM,92
O=c1cc(N2CCOCC2)oc2c(-c3ccccc3)cccc12 (collection day: 1),total cells recovered per well,0.1 µM,66
same,total cells recovered per well,1 µM,72
same,total cells recovered per well,10 µM,61
CN(CCOc1ccc(CC2SC(=O)NC2=O)cc1)c1ccccn1 (stereo unspecified) [Rosiglitazone] (collection day: 2),total cells recovered per well,0.1 µM,95
same,total cells recovered per well,1 µM,98
same,total cells recovered per well,10 µM,118
CC(=O)N(C)c1cccc(-c2ccc3nnc(C)n3n2)c1 (collection day: 2),total cells recovered per well,0.1 µM,110
same,total cells recovered per well,1 µM,117
same,total cells recovered per well,10 µM,107
NCCNS(=O)(=O)c1ccc(Cl)c2ccncc12 [CKI 7 dihydrochloride] (collection day: 2),total cells recovered per well,0.1 µM,150
same,total cells recovered per well,1 µM,115
same,total cells recovered per well,10 µM,100
"Nc1ncnc2c1nc(Br)n2[C@@H]1O[C@@H]2COP(=O)(O)O[C@H]2[C@H]1O [8-Bromo-cAMP, sodium salt] (collection day: 1)",total cells recovered per well,0.1 µM,60
same,total cells recovered per well,1 µM,60
same,total cells recovered per well,10 µM,89

# Shown with tabs: entries from further up
compound	measurement	setting	value
Nc1ncn([C@@H]2O[C@H](CO)[C@@H](O)[C@H]2O)c(=O)n1 [5-Azacytidine] (collection day: 2)	total cells recovered per well	10 µM	101
Cc1ccc(/C=N/NC(=O)c2ccccc2Oc2ccccc2)o1 (collection day: 2)	total cells recovered per well	0.1 µM	101
